Results on 40 sequences are retold here after the supplement of paper PMC10338343.

± gives the standard deviation. Only a part is listed here, and it is no random draw. Many of these values have a large error.

In the experiment the test system is EfPiwi piRISC loaded with piRNA #1 (26 nt). The experiment in a line: pre-steady-state target cleavage rate (min^-1); guide: piRNA #1 5'p-UGAGGUAGUAGGUUGUAUAGUAUCCA; MIWI and MILI are mouse PIWI proteins and EfPiwi is from a freshwater sponge; tags in brackets are library labels; higher = faster piRNA-guided slicing of the target. As to conditions: auxiliary factor: 500 nM Ephydatia muelleri Gtsf1. A digest of the protocol:
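Three pooled Cleave-'n-Seq trials supplied the data, with k3 capped at 0.0001 min^-1. In each, […] transcribed, DNA-blocked target RNA library and 1 nM active affinity-purified piRISC with one synthetic guide reacted in HEPES–potassium acetate buffer at 33 °C for 0–8 or 0–960 min, with or without 500 nM GTSF1 partner protein. Uncleaved targets were sequenced and normalised to depth and to weakly complementary targets. A burst-and-steady-state fit provided the pre-steady-state cleavage rate.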
On to GGAGACCUUAGUAUUCAACCUACUACCUCA, for which the “pre-steady-state target cleavage rate” value is 0.00108 ± 0.0077.

Take GGAGUGGAUACUAUACAACCUACUACCACA: the “pre-steady-state target cleavage rate” value stood at 0.00561 ± 0.0019. Under GGAGACCUAACUAUCACAACCUACUACCUCA stands 0.00495 ± 0.0033; under GGAGACCUAUGAUAUGUACCUUCUACCUGA, less than 0.0001.

For GGAGACCUAUCUAUACAACCUACUACGUGA, the “pre-steady-state target cleavage rate” value worked out at 0.00237 ± 0.0033.

As to GGAGAGGAUUCUAUACAACCUAGUACCUCA, the “pre-steady-state target cleavage rate” value came out at 0.00123 ± 0.0023. Under GGAGACCAUACUAUACUACCUACAACCUCA stands 0.000927 ± 0.0043; under GGAGAGGAAACUAUAGAACCUACUACCUCA, 0.00143 ± 0.0034. Under GGAGACCUAUCUUUACAACCUUCUACCUCA stands 0.00103 ± 0.0055; under GGAGACCUAACGUAUACAACCUACUACCUCA, 0.0505 ± 0.021; under GGAGACCUAAGAAUACAACCUACUACCUCA, 0.00727 ± 0.0035. Under GGAGAGGAUACUUUACAACCUUCUACCUCA stands 0.0032 ± 0.0028; under GGAGACCAUACUAUCACAACCUACUACCUCA, 0.0399 ± 0.014. As for GGAGACCUUACUAUACUACCUACAACCUCA, the “pre-steady-state target cleavage rate” value stood at 0.00126 ± 0.0053.

On to GGAGUGGAUACUAUACAACCAACUACCUCA, for which the “pre-steady-state target cleavage rate” value was 0.00568 ± 0.002. In the case of GGAGACCUAACUAAACAACGUACUACCUCA, the “pre-steady-state target cleavage rate” value turned out to be 0.00112 ± 0.007. The same measure for GGAGUGCAUACUUUACAACCUACUACCUCA: 0.00271 ± 0.0039. The same measure for GGAGACCUAUGAUAUGUUCCUACUACGCUCA: 0.000172 ± 0.028; for “GGAGUGGAUACUAUACAUGGAUGAUGGAGA [g14:g26:cont:t1A]”: less than 0.0001; for GGAGACCAUAGUAUACAACCUACUUCCUCA: 0.00272 ± 0.003.

As to GGAGACCAUACAAUAGAACCUACUACCUCA, the “pre-steady-state target cleavage rate” value was found to be 0.00131 ± 0.0048. The same measure for “GGAGACCUAUGAAUACAACCUACUACCUCU [g2:g18:cont:t1U]”: 0.688 ± 0.25. The same measure for GGAGUGGAUUCUAUACAACGUACUACCUCA: 0.00313 ± 0.0019. The same measure for GGAGACGAUACUAUACAUCCUUCUACCUCA: 0.00356 ± 0.0021. On to GGAGACCUAUGUAUCACAACCUACUACCUCA, for which the “pre-steady-state target cleavage rate” value was found to be 0.00213 ± 0.0035. Under GGAGACCUAUCUAUACAUCCUACUACCUGA stands 0.00459 ± 0.0036; under GGAGACCAUAGUUUACAACCUACUACCUCA, 0.0227 ± 0.0096. The same measure for “GGAGACCUAACUAUACAACCUACUACCUCU [g2:g21:cont:t1U]”: 0.915 ± 0.29; for GGAGUGGAUACUAUAGAACCUACUACCUGA: 0.00222 ± 0.0011.

As to GGAGACCUAACUAUACUACCUACAACCUCA, the “pre-steady-state target cleavage rate” value turned out to be 0.00129 ± 0.0063. Under GGAGUGCAUACAAUACAACCUACUACCUCA stands 0.0102 ± 0.0044; under GGAGUGGAUUCUAUACAACCUACUUCCUCA, 0.00228 ± 0.0036; under GGAGACCUAACUUUACAUCCUACUACCUCA, 0.00237 ± 0.0048.

Regarding GGAGACCAUACUAUAGUACCUACUACCUCA, the “pre-steady-state target cleavage rate” value is 0.00189 ± 0.0053. The same measure for GGAGACCUAUUUAUACAACCUACUACCUCA: 0.00367 ± 0.007. Under GGAGACCUAUCUAUACAACCUACUCACCUCA stands 0.00113 ± 0.009; under GGAGACCUAUGAUAUGUUGCUACUACUCUCA, 0.000936 ± 0.0071; under GGAGACCUAUCUAUACAACAUACUACCUCA, 0.00529 ± 0.0038. Under GGAGACCUAUGUCAUACAACCUACUACCUCA stands 0.00679 ± 0.0034; under GGAGUGGAUACUAUACUACCAACUACCUCA, 0.00428 ± 0.002.
